Measurements reported in PubChem BioAssay AID1508597 (Cure First, 2020).
This is a random part of the about 2,100 reagents, under one of the conditions tested. 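Calls flag viability under 80% in either arm, not effects specific to rucaparib; the reference for percent is not stated.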 Entries without a mark were called inactive. A reagent listed more than once was tested more than once; the source does not tell the runs apart. Not stated in the record: the 100% reference.

- Test: 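Survival screen with siRNA in ovarian cancer cells derived from patients, with or without rucaparib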 (primary screen)
- System: human ovarian carcinoma lines grown from tumours: OCI-P5x (papillary serous) and OCI-C5x (clear cell)
- Reagents: siRNA pool against human genes, 1.25 pmol siRNA per well
- Duration: 72 h or 96 h, depending on the cell culture
- Treatment: rucaparib 20 µM (about IC30) or vehicle, present until read-out
- Rucaparib or vehicle: Vehicle
- Cell line: OCI-P5x (serous)
- Detection: 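Luminescent ATP-based viability assay read 72 or 96 h after transfection, depending on culture, given as normalised percent viability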
- Direction: viability, normalised: higher = more viable cells remaining
- Active means: 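Active when normalised viability falls below 80 percent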
- Meaning of the calls: active = viability under 80%; inactive = viability 80% or more

The opening 4 entries, to show the layout:
target gene	technical replicate	viability, normalised (%)
L3MBTL2	1	64.2 (active)
L3MBTL2	2	68 (active)
L3MBTL2	3	70 (active)
DDX6	1	47.9 (active)

Results, from the start:
target gene	technical replicate	viability, normalised (%)
L3MBTL2	1	64.2 (active)
L3MBTL2	2	68 (active)
L3MBTL2	3	70 (active)
DDX6	1	47.9 (active)
DDX6	2	48.9 (active)
DDX6	3	63.9 (active)
ING3	1	72.2 (active)
ING3	2	74.3 (active)
ING3	3	85
PIK3C2B	1	108
PIK3C2B	2	78 (active)
PIK3C2B	3	87
PRKN	1	53.8 (active)
PRKN	2	79.8 (active)
PRKN	3	53 (active)
TWF1	1	82.3
TWF1	2	84.7
TWF1	3	84.6
CDK2	1	53.1 (active)
CDK2	1	93.1
CDK2	2	66.8 (active)
CDK2	2	86.6
CDK2	3	60 (active)
CDK2	3	83
BMPR1A	1	61.3 (active)
BMPR1A	1	102
BMPR1A	2	57.7 (active)
BMPR1A	2	68.6 (active)
BMPR1A	3	74.4 (active)
BMPR1A	3	94.8
CHEK2	1	62.8 (active)
CHEK2	1	94.9
CHEK2	2	62.5 (active)
CHEK2	2	103
CHEK2	3	71.8 (active)
CHEK2	3	63.3 (active)
SMARCA2	1	51.6 (active)
SMARCA2	2	53.3 (active)
SMARCA2	3	60.8 (active)
